# In patent US8216592B2, “Infection model for developing chemotherapeutic agents” (priority 2007, dated 2012):
# At least one compound was matched to its structure with a doubt left.
# Tested on: control strain MG1655
# Experiment: C. elegans infection system: control strain bacteria recovered from the nematode gut after treatment
# Assay type: in vivo, E. coli
# Conditions: MG1655-fed C. elegans; 100 μg/mL gentamicin, 50 μg/mL kanamycin, 7 μg/mL heparin or 0.01% mannose in M9 buffer, 24 hours at 26° C.; P<0.001 for all compounds tested; FIG. 4
# Experimental: Nematodes were infected with prototypical ETEC H10407 or control MG1655 strains on NGM agar. After 24 hours of infection, 30 nematodes were harvested and placed in 1 mL M9 buffer (black bars), or M9 buffer supplemented with 100 μg/mL gentamicin (white bars), 50 μg/mL kanamycin (cross-hatched bars), 7 μg/mL heparin (checkered bars), or 0.01% mannose (speckled bars), and incubated at 26° C. for 24 hours. Values represent the means of three replicate assays, and error bars indicate 1 SD.
# In one embodiment, a C. elegans/ETEC infection system can be used to screen for chemotherapeutic agents able to disrupt colonization of the nematode gut. In another embodiment, a C. elegans/ETEC infection system may be used to test a range of compounds including, for purposes of example only, the bacteriocidal antibiotic gentamicin, bacteriostatic antibiotic kanamycin, heparin, which may disrupt bacterial adherence, and mannose, which inhibits type I fimbria-mediated adherence to host cells. Age-synchronized L4 nematodes were placed on NGM agar inoculated with either strain H10407 or the control MG1655. Twenty-four hours post-infection, 30 nematodes fed each strain were placed in M9 buffer or M9 buffer supplemented with the desired compounds. After an additional 24 hours of incubation at 26° C., nematodes were harvested, washed to remove exterior bacteria, pulverized and plated on selective LB agar. […]
structure (smiles),measurement,value
NC[C@H]1O[C@H](O[C@H]2[C@H](O)[C@@H](O[C@H]3O[C@H](CO)[C@@H](O)[C@H](N)[C@H]3O)[C@H](N)C[C@@H]2N)[C@H](O)[C@@H](O)[C@@H]1O [kanamycin],"reduction in the number of bacteria recovered from the nematode gut, significance",significant reduction
